Source: patent US20100130423A1
No constants are given. Whether binding was seen depends on the method and setting. Binding seen in cells or lysates may run through a third protein. Some results given as binding are weak or reduced against the parent protein; the word gives no strength.

Key:
[1] = biological target: Janus kinase 2, wild type (JAK2 WT), O60674; test: co-immunoprecipitation with JAK2 antibody from 293T lysates, Western blot with LnK antibody; conditions: remark: other sources report otherwise
[2] = biological target: Janus kinase 2, wild type (JAK2 WT), O60674; test: co-immunoprecipitation with JAK2 antibody, Western blot with LnK antibody (legend of FIG. 4A); conditions: remark: other sources report otherwise

B1: adaptor protein LnK, wild type, Q9UQQ2 1-575 (protein, UniProt Q9UQQ2 1-575, looked up)
chain: MNGPALQPSSPSSAPSASPAAAPRGWSEFCELHAVAAARELARQYWLFAREHPQHAPLRAELVSLQFTDLFQRYFCREVRDGRAPGRDYRDTGRGPPAKAEASPEPGPGPAAPGLPKARSSEELAPPRPPGPCSFQHFRRSLRHIFRRRSAGELPAAHTAAAPGTPGEAAETPARPGLAKKFLPWSLAREPPPEALKEAVLRYSLADEASMDSGARWQRGRLALRRAPGPDGPDRVLELFDPPKSSRPKLQAACSSIQEVRWCTRLEMPDNLYTFVLKVKDRTDIIFEVGDEQQLNSWMAELSECTGRGLESTEAEMHIPSALEPSTSSSPRGSTDSLNQGASPGGLLDPACQKTDHFLSCYPWFHGPISRVKAAQLVQLQGPDAHGVFLVRQSETRRGEYVLTFNFQGIAKHLRLSLTERGQCRVQHLHFPSVVDMLHHFQRSPIPLECGAACDVRLSSYVVVVSQPPGSCNTVLFPFSLPHWDSESLPHWGSELGLPHLSSSGCPRGLSPEGLPGRSSPPEQIFHLVPSPEELANSLQHLEHEPVNRARDSDYEMDSSSRSHLRAIDNQYTPL
binding [1]: binds
binding [2]: binds
